No constants are given. Whether binding was seen depends on the method and setting. Some entries that bind do so weakly or less than the wild type.

Protein sequences, listed by entry. Tags and fused reporters are not part of them. Residues count along the entry.
UniProt Q8BG40, residues 481-658: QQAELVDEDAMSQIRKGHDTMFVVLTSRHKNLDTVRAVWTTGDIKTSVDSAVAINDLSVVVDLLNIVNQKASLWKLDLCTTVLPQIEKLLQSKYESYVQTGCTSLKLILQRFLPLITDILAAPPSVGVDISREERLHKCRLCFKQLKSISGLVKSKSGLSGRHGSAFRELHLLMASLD

The test concerns the target katanin p80 C-terminal domain (p80-CTD, aa 481-658 of mouse p80), 6xHis-tagged (mouse) (UniProt Q8BG40). The test is described as follows: crystal structure; p60-MIT L40P:p80-CTD complex, 20 mg/ml in 20 mM HEPES pH 7.5, 150 mM NaCl; sitting drops at 20 °C, 27% PEG 3350, 0.1 M BisTris propane (6.0), 0.2 M MgCl2; 2.4 Å, space group C2; both purified.

B1: katanin p60 MIT domain L40P mutant (p60-MIT L40P) (domain or fragment, UniProt Q9WV86 1-78)
chain: MSLQMIVENVKLAREYALLGNYDSAMVYYQGVLDQMNKYPYSVKDTHLRQKWQQVWQEINVEAKQVKDIMKTLESFKL
As to B1, the binding result is reported as “binds”.

For the origin of these results see PMC5668312.
